Data published in patent US6437185B1, “Quaternary ammonium compounds and process for preparing and using same” (Finetex, Inc., priority 1999, dated 2002).

Legend:
[1] = Rubine Dye Uptake Test (substantivity); settings: 0.50 % active quaternary; wool swatch, depth of dye uptake; rating of 1 is the best, 10 is poor
[2] = Comparative conditioning properties: wet comb, dry comb, flyaway of treated hair tresses; settings: conditioner base with 2.5% actives; rating of 1 best, 10 poor

| Molecule | Substantivity RATINGS [1] | DRY COMB [2] | WET COMB [2] |
| --- | --- | --- | --- |
| CCCCCCCCCCCCCCCCCC[N+](C)(C)C.[Cl-] [Stearalkonium Chloride, Stearyl Trimethyl Ammonium Chloride] | 2 | 4 | 5 |
| N′,N″,N′″-Triethyl, N′,N′,N′″,N′″-Tetramethyl, N″-[(Trioxypropyl)-ω-hydroxycetyl], dipropylene triammonium triethosulfate [FINQUAT ® CT-P] | 1 | 1 | 2 |
| CCCCCCCCCCCCCCCC[N+](C)(C)C.[Cl-] [Cetyl Trimethyl Ammonium Chloride, Cetyl trimethyl ammonium chloride] | 2 | 3 | 7 |
